Measurements reported in publication doi:10.1101/051425.
These are yes or no findings as the source states them, for the method shown.

Target: SH3 domain of rat Shank3 (residues 470-528) (rat) (UniProt Q9JLU4)
Test: SEC

- binding: no binding
Substance: SH3 domain of rat Shank3 (residues 470-528) (from UniProt Q9JLU4 470-528) (domain or fragment)
